Assay results: patent US10894091B2 (priority 2017, dated 2021)

Assays:
[1] = peptide made by a vendor; settings: whole synthesis
[2] = peptide made by a vendor (peptide synthesis; amide resin); settings: whole synthesis, reversed-phase analytical HPLC, C18, acetonitrile/0.1% TFA
[3] = reversed-phase analytical HPLC, C18, acetonitrile/0.1% TFA

Substance	final HPLC purity [1, 3] [%]	other results
GGSGGSKGSKGSKGSKGSK	97.05	–
Ac-CGGSGGSGGSKGSGSKGSK	–	purity (crude or final not stated) [1, 3]: 95%
EGGGGSDYMGWMDF	–	final HPLC purity ([1]; 254 nm): 95.25%
GGSGGSGGSKGSGSKGSK	95.52	–
GSSGSSGSSGSKGSGSKGSGSK	95.95	–
GSSGSSKGSGKGSGKGSGKGSGK	–	final HPLC purity [2]: 98.71%

End groups of sequences in plain letters are not given here. Ends that are not written are not given here.
